Results reported in publication PMC5440049.
No constants are given. Whether binding was seen depends on the method and setting. Some results given as binding are weak or reduced against the parent protein; the word gives no strength.

Protein sequences, listed by entry. Tags and fused reporters are not part of them. Lines headed by an entry give the natural chain unless they say otherwise; changes in a name come on top. Residues count along the entry.
UniProt Q9UGM3, residues 20-2413: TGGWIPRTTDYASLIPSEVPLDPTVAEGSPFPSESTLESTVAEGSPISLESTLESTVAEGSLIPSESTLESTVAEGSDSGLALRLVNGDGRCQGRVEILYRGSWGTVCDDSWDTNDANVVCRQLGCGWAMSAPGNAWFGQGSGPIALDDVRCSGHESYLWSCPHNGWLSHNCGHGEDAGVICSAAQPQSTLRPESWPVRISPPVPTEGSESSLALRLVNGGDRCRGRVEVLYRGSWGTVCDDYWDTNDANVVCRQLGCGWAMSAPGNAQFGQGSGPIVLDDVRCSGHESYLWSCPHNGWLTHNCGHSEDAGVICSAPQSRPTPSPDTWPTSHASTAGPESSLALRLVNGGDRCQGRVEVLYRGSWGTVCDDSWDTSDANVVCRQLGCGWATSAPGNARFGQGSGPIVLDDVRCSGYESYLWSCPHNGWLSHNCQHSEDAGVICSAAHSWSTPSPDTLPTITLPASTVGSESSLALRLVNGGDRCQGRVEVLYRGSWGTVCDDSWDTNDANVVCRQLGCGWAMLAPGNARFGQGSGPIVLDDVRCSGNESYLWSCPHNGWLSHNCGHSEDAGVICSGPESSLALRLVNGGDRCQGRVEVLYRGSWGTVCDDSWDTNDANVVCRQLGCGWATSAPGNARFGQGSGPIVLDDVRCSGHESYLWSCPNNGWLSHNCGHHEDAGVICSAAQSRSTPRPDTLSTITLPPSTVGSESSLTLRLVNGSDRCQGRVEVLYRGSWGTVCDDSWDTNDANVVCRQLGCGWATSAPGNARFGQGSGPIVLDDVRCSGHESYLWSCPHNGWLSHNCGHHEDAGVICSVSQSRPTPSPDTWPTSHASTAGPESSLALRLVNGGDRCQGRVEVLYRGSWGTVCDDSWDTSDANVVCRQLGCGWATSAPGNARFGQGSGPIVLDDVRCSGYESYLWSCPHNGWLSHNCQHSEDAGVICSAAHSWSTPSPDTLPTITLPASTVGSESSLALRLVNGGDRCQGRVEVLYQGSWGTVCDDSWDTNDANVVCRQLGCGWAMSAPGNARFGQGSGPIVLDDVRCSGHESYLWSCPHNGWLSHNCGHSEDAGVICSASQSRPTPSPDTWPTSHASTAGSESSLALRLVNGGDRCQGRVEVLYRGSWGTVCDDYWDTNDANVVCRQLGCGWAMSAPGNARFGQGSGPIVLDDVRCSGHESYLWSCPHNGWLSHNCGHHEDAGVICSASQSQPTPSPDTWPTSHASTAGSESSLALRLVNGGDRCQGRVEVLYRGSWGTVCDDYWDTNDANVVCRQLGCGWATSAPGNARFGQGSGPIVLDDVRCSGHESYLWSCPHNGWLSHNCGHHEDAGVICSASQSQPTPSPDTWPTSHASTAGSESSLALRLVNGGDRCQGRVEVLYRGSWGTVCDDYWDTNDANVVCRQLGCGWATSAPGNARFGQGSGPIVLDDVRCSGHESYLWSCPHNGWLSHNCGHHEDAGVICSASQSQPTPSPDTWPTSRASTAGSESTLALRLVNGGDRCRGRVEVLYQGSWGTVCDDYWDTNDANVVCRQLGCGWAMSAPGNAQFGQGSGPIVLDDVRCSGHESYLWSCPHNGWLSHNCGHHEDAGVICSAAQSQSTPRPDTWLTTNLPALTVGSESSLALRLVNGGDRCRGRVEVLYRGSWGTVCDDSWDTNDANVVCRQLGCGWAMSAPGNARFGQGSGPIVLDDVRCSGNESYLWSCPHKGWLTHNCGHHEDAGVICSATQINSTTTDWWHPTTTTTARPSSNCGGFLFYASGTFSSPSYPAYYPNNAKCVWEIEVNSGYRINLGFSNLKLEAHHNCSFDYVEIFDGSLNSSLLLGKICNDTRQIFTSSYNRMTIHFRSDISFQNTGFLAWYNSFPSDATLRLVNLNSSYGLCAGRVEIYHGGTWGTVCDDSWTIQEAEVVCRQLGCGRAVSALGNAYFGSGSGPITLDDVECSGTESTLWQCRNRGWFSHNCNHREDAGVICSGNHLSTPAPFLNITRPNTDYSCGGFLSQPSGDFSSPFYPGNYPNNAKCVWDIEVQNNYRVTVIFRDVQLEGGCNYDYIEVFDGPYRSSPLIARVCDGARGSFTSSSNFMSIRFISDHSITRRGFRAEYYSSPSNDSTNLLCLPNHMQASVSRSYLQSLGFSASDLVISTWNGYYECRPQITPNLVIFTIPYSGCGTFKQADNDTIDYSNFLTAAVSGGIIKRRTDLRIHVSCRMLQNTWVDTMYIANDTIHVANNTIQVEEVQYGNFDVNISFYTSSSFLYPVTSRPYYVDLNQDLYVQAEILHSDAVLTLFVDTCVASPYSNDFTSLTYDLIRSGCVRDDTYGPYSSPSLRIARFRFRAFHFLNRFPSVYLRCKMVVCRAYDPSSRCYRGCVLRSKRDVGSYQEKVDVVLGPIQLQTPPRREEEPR

Molecular target: DMBT1 (Deleted in Malignant Brain Tumors 1) purified from human saliva (human (endogenous in saliva)) (UniProt Q9UGM3)
Assay: far-Western, overlay or dot blot; dot-immunoblot: 2 ul DMBT1 in PBS (400 ng/ul and serial dilutions) spotted on nitrocellulose, blocked with 5% BSA, incubated with undiluted pili-containing extract of PAO1 for 40 min at room temperature, washed 5 times with PBS, probed with anti-PilA antibody; only the target purified

B1: pili extracted from P. aeruginosa strain PAO1 (type IV pili, polymer of the PilA major pilin subunit) (protein, UniProt P04739 7-149)
chain: FTLIELMIVVAIIGILAAIAIPQYQNYVARSEGASALATINPLKTTVEESLSRGIAGSKIKIGTTASTATETYVGVEPDANKLGVIAVAIEDSGAGDITFTFQTGTSSPKNATKVITLNRTADGVWACKSTQDPMFTPKGCDN
For B1, the binding was “binds”.
